Data taken from publication PMC3917433.
Results are given in words; binding and its absence hold for the method and conditions named. Some binding calls cover weakened binding; strength is not graded here.

Protein sequences, listed by entry. Tags and fused reporters are not part of them. Lines headed by an entry give the natural chain unless they say otherwise; changes in a name come on top. Chains listed by the source or under a name are the forms on record and can include a tag or linker.
UniProt P18848: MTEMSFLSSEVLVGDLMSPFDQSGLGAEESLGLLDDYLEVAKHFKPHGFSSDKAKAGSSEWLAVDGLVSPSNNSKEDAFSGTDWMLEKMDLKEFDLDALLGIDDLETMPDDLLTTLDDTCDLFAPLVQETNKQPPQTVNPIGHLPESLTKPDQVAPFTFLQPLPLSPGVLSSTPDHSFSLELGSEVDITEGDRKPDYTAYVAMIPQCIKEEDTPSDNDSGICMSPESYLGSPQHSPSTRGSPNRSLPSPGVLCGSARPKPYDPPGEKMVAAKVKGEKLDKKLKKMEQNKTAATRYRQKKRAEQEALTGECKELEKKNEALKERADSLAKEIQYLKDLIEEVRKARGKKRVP
UniProt Q96AP0: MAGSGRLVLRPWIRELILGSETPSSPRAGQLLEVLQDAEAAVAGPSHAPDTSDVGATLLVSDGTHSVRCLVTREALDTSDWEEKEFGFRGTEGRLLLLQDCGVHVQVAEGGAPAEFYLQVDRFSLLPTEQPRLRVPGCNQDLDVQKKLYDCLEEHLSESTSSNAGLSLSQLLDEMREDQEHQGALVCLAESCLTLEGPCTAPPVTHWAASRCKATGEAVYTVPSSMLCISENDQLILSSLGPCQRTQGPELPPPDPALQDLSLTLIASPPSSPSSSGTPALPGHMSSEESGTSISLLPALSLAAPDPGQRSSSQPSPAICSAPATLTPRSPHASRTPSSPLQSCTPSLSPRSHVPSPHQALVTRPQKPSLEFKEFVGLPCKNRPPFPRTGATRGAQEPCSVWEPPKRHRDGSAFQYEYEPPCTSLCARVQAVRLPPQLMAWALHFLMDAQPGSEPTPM
UniProt Q13547: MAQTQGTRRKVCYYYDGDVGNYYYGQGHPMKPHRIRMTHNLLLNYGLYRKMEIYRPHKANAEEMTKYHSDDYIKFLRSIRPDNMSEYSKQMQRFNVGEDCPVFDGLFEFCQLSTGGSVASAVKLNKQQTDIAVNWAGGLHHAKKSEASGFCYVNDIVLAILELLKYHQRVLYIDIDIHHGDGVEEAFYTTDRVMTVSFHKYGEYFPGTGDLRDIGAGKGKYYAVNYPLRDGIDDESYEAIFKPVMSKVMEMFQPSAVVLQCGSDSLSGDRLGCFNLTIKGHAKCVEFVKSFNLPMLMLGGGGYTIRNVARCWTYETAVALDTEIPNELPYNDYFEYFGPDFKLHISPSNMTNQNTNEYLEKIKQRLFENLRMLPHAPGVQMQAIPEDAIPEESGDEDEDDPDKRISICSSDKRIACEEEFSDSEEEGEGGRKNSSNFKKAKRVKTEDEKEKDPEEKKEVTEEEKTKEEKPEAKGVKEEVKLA
UniProt Q92769: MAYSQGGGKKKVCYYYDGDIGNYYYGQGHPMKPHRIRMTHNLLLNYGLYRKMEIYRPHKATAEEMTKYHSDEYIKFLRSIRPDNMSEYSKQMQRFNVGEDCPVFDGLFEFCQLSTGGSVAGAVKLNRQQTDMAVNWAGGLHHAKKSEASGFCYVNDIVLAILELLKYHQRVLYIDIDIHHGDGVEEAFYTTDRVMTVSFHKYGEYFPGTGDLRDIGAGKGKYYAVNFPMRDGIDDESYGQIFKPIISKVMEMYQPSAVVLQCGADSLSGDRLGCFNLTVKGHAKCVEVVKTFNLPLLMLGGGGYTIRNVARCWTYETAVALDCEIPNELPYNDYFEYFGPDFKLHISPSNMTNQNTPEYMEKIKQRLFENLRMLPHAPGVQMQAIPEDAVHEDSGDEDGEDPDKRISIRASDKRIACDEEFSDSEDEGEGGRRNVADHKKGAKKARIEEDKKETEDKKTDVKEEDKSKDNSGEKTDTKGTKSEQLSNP
Kruppel-like factor 4 (gut) (KLF4) (O43474, form named): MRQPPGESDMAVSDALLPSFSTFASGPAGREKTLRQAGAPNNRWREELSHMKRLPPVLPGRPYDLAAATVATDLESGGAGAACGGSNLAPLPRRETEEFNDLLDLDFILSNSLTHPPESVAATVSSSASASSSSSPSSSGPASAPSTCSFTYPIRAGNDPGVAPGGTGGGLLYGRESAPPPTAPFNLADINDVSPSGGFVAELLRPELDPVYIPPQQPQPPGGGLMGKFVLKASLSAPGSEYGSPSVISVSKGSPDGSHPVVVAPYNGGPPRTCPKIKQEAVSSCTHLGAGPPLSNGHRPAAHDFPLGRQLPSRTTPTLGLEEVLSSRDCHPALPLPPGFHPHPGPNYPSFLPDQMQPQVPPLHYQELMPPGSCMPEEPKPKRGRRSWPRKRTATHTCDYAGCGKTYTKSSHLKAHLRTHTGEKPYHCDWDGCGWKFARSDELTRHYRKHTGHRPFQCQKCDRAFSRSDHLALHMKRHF
UniProt Q6PJ21: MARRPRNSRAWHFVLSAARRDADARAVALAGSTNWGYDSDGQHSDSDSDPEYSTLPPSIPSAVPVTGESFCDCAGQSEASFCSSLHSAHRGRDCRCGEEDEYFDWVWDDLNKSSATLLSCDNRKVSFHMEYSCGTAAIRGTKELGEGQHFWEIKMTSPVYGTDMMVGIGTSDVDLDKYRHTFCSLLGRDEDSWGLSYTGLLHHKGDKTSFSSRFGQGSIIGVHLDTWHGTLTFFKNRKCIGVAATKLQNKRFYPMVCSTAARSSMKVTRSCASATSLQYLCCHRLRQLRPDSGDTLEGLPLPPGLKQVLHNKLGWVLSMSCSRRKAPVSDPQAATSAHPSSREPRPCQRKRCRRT
UniProt O95793: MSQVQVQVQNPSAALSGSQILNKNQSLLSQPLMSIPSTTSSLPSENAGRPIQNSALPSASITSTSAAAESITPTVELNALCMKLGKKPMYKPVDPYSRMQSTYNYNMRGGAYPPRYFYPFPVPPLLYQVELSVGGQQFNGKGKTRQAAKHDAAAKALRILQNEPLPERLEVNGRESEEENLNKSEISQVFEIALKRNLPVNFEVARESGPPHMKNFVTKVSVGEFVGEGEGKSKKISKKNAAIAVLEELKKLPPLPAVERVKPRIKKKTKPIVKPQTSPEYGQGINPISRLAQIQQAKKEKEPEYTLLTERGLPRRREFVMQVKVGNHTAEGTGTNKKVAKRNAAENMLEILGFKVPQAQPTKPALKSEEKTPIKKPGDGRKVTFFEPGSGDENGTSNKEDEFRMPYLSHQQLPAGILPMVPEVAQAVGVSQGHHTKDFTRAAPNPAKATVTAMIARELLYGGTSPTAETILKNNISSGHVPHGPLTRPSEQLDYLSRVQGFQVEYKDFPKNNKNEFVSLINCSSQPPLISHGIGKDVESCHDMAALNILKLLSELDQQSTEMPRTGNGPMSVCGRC
UniProt P46100: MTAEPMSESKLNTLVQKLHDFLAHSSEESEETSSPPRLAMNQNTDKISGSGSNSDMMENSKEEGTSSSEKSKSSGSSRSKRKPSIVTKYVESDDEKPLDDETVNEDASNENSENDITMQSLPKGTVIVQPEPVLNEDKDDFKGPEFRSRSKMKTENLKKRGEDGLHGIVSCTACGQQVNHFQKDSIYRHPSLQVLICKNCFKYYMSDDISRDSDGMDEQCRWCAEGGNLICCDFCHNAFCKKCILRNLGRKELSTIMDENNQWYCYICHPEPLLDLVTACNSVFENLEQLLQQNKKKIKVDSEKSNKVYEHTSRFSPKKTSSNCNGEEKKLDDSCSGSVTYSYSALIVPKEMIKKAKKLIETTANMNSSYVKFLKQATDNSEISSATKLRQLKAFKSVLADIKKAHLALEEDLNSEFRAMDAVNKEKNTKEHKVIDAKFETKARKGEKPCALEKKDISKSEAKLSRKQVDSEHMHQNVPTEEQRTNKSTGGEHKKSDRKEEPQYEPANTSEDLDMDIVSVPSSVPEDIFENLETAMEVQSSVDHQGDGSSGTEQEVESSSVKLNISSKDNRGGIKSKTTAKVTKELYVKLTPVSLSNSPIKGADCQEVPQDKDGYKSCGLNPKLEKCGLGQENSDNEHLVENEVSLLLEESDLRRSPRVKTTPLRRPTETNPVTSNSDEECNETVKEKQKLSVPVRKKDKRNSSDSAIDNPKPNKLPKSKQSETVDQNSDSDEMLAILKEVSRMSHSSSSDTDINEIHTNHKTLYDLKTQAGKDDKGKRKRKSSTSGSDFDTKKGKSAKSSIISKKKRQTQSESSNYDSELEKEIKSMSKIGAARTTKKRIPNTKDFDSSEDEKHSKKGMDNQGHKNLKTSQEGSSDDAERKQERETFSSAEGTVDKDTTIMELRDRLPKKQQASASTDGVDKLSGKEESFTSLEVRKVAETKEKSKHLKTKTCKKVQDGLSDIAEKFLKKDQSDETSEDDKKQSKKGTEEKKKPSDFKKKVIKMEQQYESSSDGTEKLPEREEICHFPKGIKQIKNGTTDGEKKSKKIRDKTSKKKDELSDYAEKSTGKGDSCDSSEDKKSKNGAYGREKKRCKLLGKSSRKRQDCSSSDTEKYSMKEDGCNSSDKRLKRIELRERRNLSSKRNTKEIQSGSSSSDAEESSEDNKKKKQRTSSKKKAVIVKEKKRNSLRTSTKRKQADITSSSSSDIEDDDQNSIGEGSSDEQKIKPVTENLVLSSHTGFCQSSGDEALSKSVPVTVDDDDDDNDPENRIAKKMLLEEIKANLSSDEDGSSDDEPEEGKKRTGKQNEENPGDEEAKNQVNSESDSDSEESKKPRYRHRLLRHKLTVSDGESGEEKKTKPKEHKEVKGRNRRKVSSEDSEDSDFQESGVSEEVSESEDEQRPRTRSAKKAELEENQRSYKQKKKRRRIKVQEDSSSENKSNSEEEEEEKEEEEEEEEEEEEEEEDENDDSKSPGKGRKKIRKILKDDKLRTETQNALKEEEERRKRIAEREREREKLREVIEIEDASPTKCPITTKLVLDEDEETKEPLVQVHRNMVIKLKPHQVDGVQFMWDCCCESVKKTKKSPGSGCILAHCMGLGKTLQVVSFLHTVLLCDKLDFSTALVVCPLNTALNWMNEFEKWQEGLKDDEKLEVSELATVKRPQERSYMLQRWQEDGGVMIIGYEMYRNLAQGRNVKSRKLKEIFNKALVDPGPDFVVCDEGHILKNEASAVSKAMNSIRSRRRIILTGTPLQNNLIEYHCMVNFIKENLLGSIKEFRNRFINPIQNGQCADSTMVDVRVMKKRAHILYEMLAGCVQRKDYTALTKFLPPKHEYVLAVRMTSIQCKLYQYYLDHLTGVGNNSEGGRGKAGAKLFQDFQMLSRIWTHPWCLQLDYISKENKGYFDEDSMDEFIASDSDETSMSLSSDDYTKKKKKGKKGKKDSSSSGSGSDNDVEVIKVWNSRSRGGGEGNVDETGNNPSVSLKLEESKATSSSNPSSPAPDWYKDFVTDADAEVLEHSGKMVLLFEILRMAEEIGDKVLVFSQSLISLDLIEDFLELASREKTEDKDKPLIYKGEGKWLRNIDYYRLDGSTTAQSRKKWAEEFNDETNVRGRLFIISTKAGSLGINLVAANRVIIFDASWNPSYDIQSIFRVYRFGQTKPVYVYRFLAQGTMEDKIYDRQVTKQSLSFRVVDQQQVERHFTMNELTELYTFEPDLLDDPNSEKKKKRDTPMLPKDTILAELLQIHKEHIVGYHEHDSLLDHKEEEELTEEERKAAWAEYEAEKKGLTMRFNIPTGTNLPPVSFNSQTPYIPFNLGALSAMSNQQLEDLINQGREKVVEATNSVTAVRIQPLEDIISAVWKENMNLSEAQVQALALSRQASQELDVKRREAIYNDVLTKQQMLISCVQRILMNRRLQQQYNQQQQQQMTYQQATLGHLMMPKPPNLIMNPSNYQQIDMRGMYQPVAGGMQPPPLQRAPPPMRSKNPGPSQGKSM
UniProt P13202: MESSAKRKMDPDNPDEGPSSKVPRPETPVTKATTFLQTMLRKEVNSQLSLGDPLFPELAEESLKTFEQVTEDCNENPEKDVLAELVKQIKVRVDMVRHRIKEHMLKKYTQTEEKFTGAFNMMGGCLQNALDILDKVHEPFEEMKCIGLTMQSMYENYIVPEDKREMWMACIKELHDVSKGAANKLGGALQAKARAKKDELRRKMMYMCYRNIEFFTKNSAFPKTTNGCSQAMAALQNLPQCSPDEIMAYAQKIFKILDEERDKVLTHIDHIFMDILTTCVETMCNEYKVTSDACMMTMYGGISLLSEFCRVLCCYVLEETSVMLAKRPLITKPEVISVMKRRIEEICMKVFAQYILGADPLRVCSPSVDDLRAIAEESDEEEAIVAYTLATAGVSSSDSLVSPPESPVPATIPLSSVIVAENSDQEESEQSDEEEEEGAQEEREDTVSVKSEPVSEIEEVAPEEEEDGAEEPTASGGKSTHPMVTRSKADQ

Assays:
Assay in all cases: peptide or protein array; only the binder purified
[1] = target: Activating transcription factor 4 (ATF4) (human) (UniProt P18848)
[2] = target: Adrenocortical dysplasia homolog (mouse) (ACD), transcript variant 1 (human) (UniProt Q96AP0)
[3] = target: T1, Breast carcinoma amplified sequence 2 (human) (UniProt O75934)
T1 sequence: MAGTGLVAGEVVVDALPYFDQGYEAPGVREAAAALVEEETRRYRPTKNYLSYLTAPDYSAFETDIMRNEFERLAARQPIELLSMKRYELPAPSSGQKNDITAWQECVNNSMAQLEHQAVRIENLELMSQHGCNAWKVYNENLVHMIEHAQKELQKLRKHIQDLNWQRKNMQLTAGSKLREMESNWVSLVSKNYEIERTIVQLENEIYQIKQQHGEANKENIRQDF

[4] = target: T2, CDCA4 Cell division cycle associated gene 4 (human) (UniProt Q9BXL8)
T2 sequence: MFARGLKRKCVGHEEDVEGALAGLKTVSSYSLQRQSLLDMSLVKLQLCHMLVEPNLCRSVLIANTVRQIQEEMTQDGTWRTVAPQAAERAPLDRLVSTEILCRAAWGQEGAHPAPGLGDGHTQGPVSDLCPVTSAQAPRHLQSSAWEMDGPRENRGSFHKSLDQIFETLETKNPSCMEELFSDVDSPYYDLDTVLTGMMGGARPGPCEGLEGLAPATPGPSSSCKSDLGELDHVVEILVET

[5] = target: Chromosome 11 open reading frame 56 (C11orf56) (human) (UniProt Q8N612)
[6] = target: HDAC1 (human) (UniProt Q13547)
[7] = target: HDAC2 (human) (UniProt Q92769)
[8] = target: KIAA1856 protein (KIAA1856) (human) (UniProt O15417)
[9] = target: Kruppel-like factor 4 (gut) (KLF4) (human) (UniProt O43474)
[10] = target: T3, Nuclear receptor coactivator 5 (NCOA5) (human) (UniProt Q9HCD5)
T3 sequence: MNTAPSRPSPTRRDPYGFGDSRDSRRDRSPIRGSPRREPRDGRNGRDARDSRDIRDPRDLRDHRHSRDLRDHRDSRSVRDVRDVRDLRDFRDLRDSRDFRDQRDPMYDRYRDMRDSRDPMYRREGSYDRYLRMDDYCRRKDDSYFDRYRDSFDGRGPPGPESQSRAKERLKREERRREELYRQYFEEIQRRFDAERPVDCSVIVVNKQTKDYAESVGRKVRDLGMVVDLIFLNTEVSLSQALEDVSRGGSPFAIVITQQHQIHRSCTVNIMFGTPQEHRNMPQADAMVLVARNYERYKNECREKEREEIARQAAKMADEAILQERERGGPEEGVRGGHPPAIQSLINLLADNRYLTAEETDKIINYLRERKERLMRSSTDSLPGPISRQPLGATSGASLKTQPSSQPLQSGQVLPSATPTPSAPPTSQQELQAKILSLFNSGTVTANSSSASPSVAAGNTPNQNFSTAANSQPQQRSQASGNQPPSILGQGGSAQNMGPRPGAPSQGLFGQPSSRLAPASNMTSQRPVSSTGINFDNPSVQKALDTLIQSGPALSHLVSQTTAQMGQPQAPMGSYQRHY

[11] = target: T4, Polycomb group ring Finger 2 (PCGF2) (human) (UniProt P35227)
T4 sequence: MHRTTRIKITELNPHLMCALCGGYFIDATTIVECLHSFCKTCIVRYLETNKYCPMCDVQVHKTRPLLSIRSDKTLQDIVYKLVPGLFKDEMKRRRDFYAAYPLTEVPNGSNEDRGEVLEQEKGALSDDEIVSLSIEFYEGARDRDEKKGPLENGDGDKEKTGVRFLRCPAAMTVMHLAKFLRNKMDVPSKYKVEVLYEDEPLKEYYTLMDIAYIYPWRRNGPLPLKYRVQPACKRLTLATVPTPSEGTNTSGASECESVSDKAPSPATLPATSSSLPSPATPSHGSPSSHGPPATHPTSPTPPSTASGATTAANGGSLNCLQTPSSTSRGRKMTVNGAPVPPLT

[12] = target: SplA/ryanodine receptor domain and SOCS box containing 3 (human) (UniProt Q6PJ21)
[13] = target: Staufen, RNA binding protein (human) (UniProt O95793)
[14] = target: TPRDI (tetratricopeptide repeat) (human) (UniProt P53804)
[15] = target: Transcriptional regulator ATRX (human) (UniProt P46100)
[16] = target: Tumor rejection antigen (gp96) 1 (human) (UniProt P14625)
[17] = target: Ubiquitin specific peptidase 54 (USP54) (human) (UniProt Q70EL1)
[18] = target: T5, peroxisomal biogenesis factor 19 (PEX19) (human) (UniProt P40855)
T5 sequence: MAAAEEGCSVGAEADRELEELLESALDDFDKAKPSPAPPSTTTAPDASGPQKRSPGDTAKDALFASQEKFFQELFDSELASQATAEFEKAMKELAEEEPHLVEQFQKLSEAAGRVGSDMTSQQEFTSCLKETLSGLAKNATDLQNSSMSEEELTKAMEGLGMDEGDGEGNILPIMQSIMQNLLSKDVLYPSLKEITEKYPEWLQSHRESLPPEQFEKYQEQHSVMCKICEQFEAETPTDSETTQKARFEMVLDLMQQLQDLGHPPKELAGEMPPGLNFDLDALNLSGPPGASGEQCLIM

[19] = target: protein tyrosine phosphatase, receptor type, f polypeptide (PTPRF), interacting protein (liprin), alpha 1 (PPFIA1) (human) (UniProt Q13136)

## Human cytomegalovirus immediate-early protein 1 (from UniProt P13202 1-491)
[1]
  binding: binds
[2]
  binding: binds
[3]
  binding: binds
[4]
  binding: binds
[5]
  binding: binds
[6]
  binding: no binding
[7]
  binding: no binding
[8]
  binding: binds
[9]
  binding: binds
[10]
  binding: binds
[11]
  binding: binds
[12]
  binding: binds
[13]
  binding: binds
[14]
  binding: binds
[15]
  binding: binds
[16]
  binding: binds
[17]
  binding: binds
[18]
  binding: binds
[19]
  binding: binds
